# Data as given in PubChem BioAssay AID540256 (National Center for Advancing Translational Sciences (NCATS), 2011).
# The campaign covered roughly 300,000 compounds. About 3,700 (1.2%) were called active. The inconclusive results got no clear call from the source; some entries with a clear call stand among them for comparison. Calls follow the shape of the full dose curve; tested in HEK293 cells. Potencies beside an inconclusive call are fits to weak or partial responses and may not hold up.
# Experiment: qHTS for Inhibitors of binding or entry into cells for Lassa Virus; also: nearly all actives have a fitted effect of over 50% in size
# Details: Lassa virus pseudotype entry inhibition, cell reporter; series mostly up to 37.9 µM
# Potency is read from the fitted curve at half-maximal effect.
row,SMILES,Potency
1,Cc1sc(NC(=O)c2ccco2)c(CN2CCN(c3ccccn3)CC2)c1C,inactive
2,Cc1ccccc1Cc1c(C)nc2c(-c3ccccc3)c(C)[nH]n2c1=O,"inconclusive: 12.6 µM [inhibitor, partial curve, poor fit]"
3,Cc1ccc(NC(=O)Cc2nc(CSc3nnc(-c4ccc5c(c4)OCO5)o3)cs2)cc1,inactive
4,CCN(CC)CCNc1nc(-n2nc(C)cc2C)nc2sc3c(c12)CC(C)(C)OC3,active: 7.94 µM
5,c1ccc(-c2noc(-c3ccncc3)n2)nc1,inactive
6,Cn1ccnc1,"inconclusive: 0.058 µM [activator, full curve, poor fit]"
7,Cc1ccc(N2C(=O)CC(Sc3ncn[nH]3)C2=O)cc1C (stereo not given),"inconclusive: 35.5 µM [activator, single point]"
8,COc1ccc(CNC(=O)CCc2nc3cccnc3n2Cc2ccc(OC)cc2)cc1,inactive
9,CCOc1ccc(NC(=O)CN2CCN(CC(=O)c3ccc(OC)c(OC)c3)CC2)cc1,inactive
10,Cc1cc2c(cc1S(=O)(=O)Nc1cccc(F)c1C)NC(=O)CO2,"inconclusive: 35.5 µM [inhibitor, single point]"
11,COC(=O)/C(=C\Nc1ccc(Oc2ccc(F)cc2F)nc1)NC(=O)c1ccccc1,"inconclusive: 20 µM [inhibitor, single point]"
12,Cc1cc(=O)[nH]c(N/N=C/c2c(O)n(-c3ccccc3)c(=O)c3ccccc23)n1,inactive
13,CN(C(=O)Cn1c(=O)n(Cc2ccc(C(=O)NCc3ccc4c(c3)OCO4)cc2)c(=O)c2ccccc21)c1ccccc1,inactive
14,Cc1c(Cl)cccc1NC(=O)CCC(=O)N/N=C/c1ccc[nH]1,"inconclusive: 2.82 µM [inhibitor, full curve, poor fit]"
15,O=C(CN1C(=O)S/C(=C/C=C/c2ccccc2)C1=O)Nc1ccc(C(=O)O)cc1,"inconclusive: 6.31 µM [inhibitor, partial curve, poor fit]"
16,COc1cc(C2C3=C(COC3=O)Oc3cc4c(cc32)OCO4)cc(OC)c1OC (stereo not given),"inconclusive: 0.1 µM [inhibitor, full curve, poor fit]"
17,CS(=O)(=O)N1N=C(c2ccco2)CC1c1ccc(Cl)cc1 (stereo not given),inactive
18,CCN(c1ccccc1)S(=O)(=O)c1ccc(Oc2ccc([N+](=O)[O-])cc2)nc1,"inconclusive: 11.2 µM [inhibitor, partial curve, poor fit]"
19,COc1ccc(CCC(=O)N2CCCSC2=Nc2ccc(C(C)=O)cc2)cc1,inactive
20,O=C(Nc1nccs1)C1CC(=O)N(CCc2ccc(F)cc2)C1 (stereo not given),inactive
21,O=C(Cc1ccc(F)cc1)Nc1cccc(-c2cn3c(n2)SCC3)c1,inactive
22,Cn1c(N)c(C(=O)COC(=O)/C=C/c2cccc(F)c2)c(=O)n(C)c1=O,inactive
23,CCOC(=O)N1CCN(C(=O)c2ccc3nc(SCc4ccc(F)cc4)n(C)c3c2)CC1,"inconclusive: 20 µM [inhibitor, single point]"

row,SMILES,Potency
1,Cc1ccc2cc(CN(CCc3ccccc3)C(=S)NCCCN(C)C)c(=O)[nH]c2c1,"inconclusive: 35.5 µM [inhibitor, single point]"
2,O=C(Cc1cccs1)Nc1ccccc1F,"inconclusive: 25.1 µM [activator, single point]"
3,COCCN1C=C2C(=O)C(C)(OC(=O)C3CCCC3)C(=O)C=C2C=C1c1ccsc1 (stereo not given),"inconclusive: 0.0053 µM [inhibitor, full curve, poor fit]"
4,COc1ccc(S(=O)(=O)N2CCC(C(N)=O)(N3CCCCC3)CC2)cc1OC,"inconclusive: 3.98 µM [inhibitor, single point]"
5,O=C1CCC(C(=O)N2CCCC2)CN1Cc1cccc(C(F)(F)F)c1 (stereo not given),inactive
6,Cc1ccc(NC(=O)Cn2c(=O)n(CCc3ccccc3)c(=O)c3sc4ccccc4c32)cc1C,inactive
7,CCOc1ccc(C2NC(=S)NC3=C2CCc2ccccc23)cc1 (stereo not given),"inconclusive: 10 µM [inhibitor, partial curve, poor fit]"
8,CCc1ccc(C(=O)COC(=O)c2cccnc2Cl)cc1,"inconclusive: 35.5 µM [inhibitor, single point]"
9,C/C=C(\C)CN1CCN(c2cc(C)ccc2C)CC1,"inconclusive: 0.103 µM [inhibitor, full curve, poor fit]"
10,COC(=O)c1ccc(NC(=O)c2nn(C)c3c2COc2ccccc2-3)cc1,"inconclusive: 35.5 µM [inhibitor, single point]"
11,CCOc1ccc(OCC(=O)NCCS(=O)(=O)N2CCN(c3ccc(OC)cc3)CC2)cc1,inactive
12,CCN1CCN(c2ccc([N+](=O)[O-])cc2C(=O)OC)CC1,"inconclusive: 17.8 µM [activator, single point]"
13,COc1cc(N)ccc1Cc1ccc(N)cc1OC,"inconclusive: 1.83 µM [activator, partial curve, poor fit]"
14,Cc1cc2ccccn2c1C(=O)c1ccc(F)cc1,"inconclusive: 15.8 µM [inhibitor, partial curve, poor fit]"
15,Cn1c(NC(=O)/C=C/c2ccccc2)cc(=O)n(C)c1=O,"inconclusive: 0.112 µM [activator, full curve, poor fit]"
16,Cc1ccccc1C(=O)Nc1ccc2nc(SCC(=O)N(C)c3ccccc3)sc2c1,"inconclusive: 8.91 µM [inhibitor, partial curve, poor fit]"
17,Cc1cccc(Cn2c(SCc3ccc(C(=O)NCc4cccs4)cc3)nc3ccncc32)c1,inactive
18,Cn1cc(-c2cc3n(n2)CCC(=O)N3CC(=O)NCc2ccccc2)c2ccccc21,inactive
19,CC(c1ccccc1)N(NC(=O)C(O)(c1ccccc1)c1ccccc1)C(=O)c1ccccc1 (stereo not given),inactive
20,COc1ccc(/C=N\NC(=O)COc2ccc(C(C)(C)C)cc2)cc1Cn1nc(C)cc1C,active: 2.24 µM
21,COc1ccc(NC(=O)CSc2cccc3cccnc23)c(OC)c1,"inconclusive: 17.8 µM [activator, partial curve, poor fit]"
22,COc1ccc(N(C(=O)c2cc(OC)c(OC)c(OC)c2)S(=O)(=O)c2ccc(C)cc2)cc1,"inconclusive: 12.6 µM [inhibitor, partial curve, poor fit]"

# Nine successive records out of the list so far:
row,SMILES,Potency
15,O=C(CN1C(=O)S/C(=C/C=C/c2ccccc2)C1=O)Nc1ccc(C(=O)O)cc1,"inconclusive: 6.31 µM [inhibitor, partial curve, poor fit]"
16,COc1cc(C2C3=C(COC3=O)Oc3cc4c(cc32)OCO4)cc(OC)c1OC (stereo not given),"inconclusive: 0.1 µM [inhibitor, full curve, poor fit]"
17,CS(=O)(=O)N1N=C(c2ccco2)CC1c1ccc(Cl)cc1 (stereo not given),inactive
18,CCN(c1ccccc1)S(=O)(=O)c1ccc(Oc2ccc([N+](=O)[O-])cc2)nc1,"inconclusive: 11.2 µM [inhibitor, partial curve, poor fit]"
19,COc1ccc(CCC(=O)N2CCCSC2=Nc2ccc(C(C)=O)cc2)cc1,inactive
20,O=C(Nc1nccs1)C1CC(=O)N(CCc2ccc(F)cc2)C1 (stereo not given),inactive
21,O=C(Cc1ccc(F)cc1)Nc1cccc(-c2cn3c(n2)SCC3)c1,inactive
22,Cn1c(N)c(C(=O)COC(=O)/C=C/c2cccc(F)c2)c(=O)n(C)c1=O,inactive
23,CCOC(=O)N1CCN(C(=O)c2ccc3nc(SCc4ccc(F)cc4)n(C)c3c2)CC1,"inconclusive: 20 µM [inhibitor, single point]"
